{
  "source": "the supplement of paper PMC4604168 (melanoma cell lines)",
  "note": "The list shows a part of the results. Repeats are few or missing, and single values can be far off.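 The apoptosis fraction was the count of cleaved-PARP antibody-stained nuclei relative to all DNA-stained nuclei, imaged in 1,536-well plates. Screening doses were set so most cells survived, and baseline and induced cleaved-PARP levels vary greatly across cell lines.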",
  "data": [
    {"test_system": "SkMel28", "assay": "cleaved PARP positive nuclei fraction relative to DMSO control; melanoma cells; higher = more apoptosis", "settings": "library dose: low library concentration; 72 h", "units": {"cleaved PARP positive nuclei fraction": "%"}, "values": [
      {"smiles": "CCc1ccc(CCOc2ccc(CC3SC(=O)NC3=O)cc2)nc1", "note": "(stereo unspecified) [pioglitazone] + CCCCCCCCCCCC1=C(O)C(=O)C=C(O)C1=O [Embelin] (first compound 2 µM, partner dose 1.2 µM)", "cleaved PARP positive nuclei fraction": 36},
      {"smiles": "CN(C)S(=O)(=O)c1ccc2c(c1)/C(=C/c1cc3c([nH]1)CCCC3)C(=O)N2", "note": "+ c1cc(-c2cnn3cc(-c4ccc(OCCN5CCCCC5)cc4)cnc23)ccn1 [Dorsomorphin] (first compound 0.4 µM, partner dose 0.4 µM)", "cleaved PARP positive nuclei fraction": 236},
      {"smiles": "O=C(Nc1ccccc1)c1cc([N+](=O)[O-])ccc1Cl", "note": "+ O=c1cc(-c2cccc3c2Sc2ccccc2S3)oc(N2CCOCC2)c1 [KU55933] (first compound 2 µM, partner dose 1 µM)", "cleaved PARP positive nuclei fraction": 110},
      {"smiles": "COc1cc2ncnc(Nc3ccc(Oc4ccccc4)cc3)c2cc1OC", "note": "+ O=C(O)C(=O)Nc1sc2c(c1C(=O)O)CCNC2 [TCS401] (first compound 2 µM, partner dose 1.66667 µM)", "cleaved PARP positive nuclei fraction": 182},
      {"smiles": "COc1ccc(-c2ccc3c(N4CCOCC4)nc(N4C[C@@H](C)O[C@@H](C)C4)nc3n2)cc1CO", "note": "+ Oc1nc(-c2ccc(C(F)(F)F)cc2)nc2c1CSCC2 [XAV939] (first compound 0.02 µM, partner dose 2 µM)", "cleaved PARP positive nuclei fraction": 94.2},
      {"smiles": "CN(NC(=O)CC(=O)NN(C)C(=S)c1ccccc1)C(=S)c1ccccc1", "note": "+ CCc1ccc(CCOc2ccc(CC3SC(=O)NC3=O)cc2)nc1 [pioglitazone] (first compound 0.006 µM, partner dose 2 µM)", "cleaved PARP positive nuclei fraction": 204},
      {"smiles": "CCc1ccc(CCOc2ccc(CC3SC(=O)NC3=O)cc2)nc1", "note": "(stereo unspecified) [pioglitazone] + Cc1cc([N+](=O)[O-])ccc1NS(=O)(=O)c1cc(Cl)ccc1Cl [FH535] (first compound 2 µM, partner dose 1 µM)", "cleaved PARP positive nuclei fraction": 72.7},
      {"smiles": "CCN(CC)CCCCNc1ncc2cc(-c3cc(OC)cc(OC)c3)c(NC(=O)NC(C)(C)C)nc2n1", "note": "+ O=c1cc(-c2cccc3c2Sc2ccccc2S3)oc(N2CCOCC2)c1 [KU55933] (first compound 0.1 µM, partner dose 1 µM)", "cleaved PARP positive nuclei fraction": 99.8},
      {"smiles": "COc1ccc(COc2ccc(Cc3cnc(N)nc3N)cc2OC)cc1", "note": "+ O=C1NC(=O)/C(=C/c2ccc(-c3ccc(F)cc3O)o2)S1 [AS252424] (first compound 1 µM, partner dose 1 µM)", "cleaved PARP positive nuclei fraction": 52},
      {"smiles": "Oc1cc(-c2nc(-c3ccccc3)[nH]c2-c2ccncc2)ccc1Cl", "note": "+ Cn1cc(/C=C2\\C(=O)Nc3cccnc32)c2ccccc21 [GW441756] (first compound 0.2 µM, partner dose 0.4 µM)", "cleaved PARP positive nuclei fraction": 220},
      {"smiles": "NCC(=O)Nc1ccc(-n2nc(C(F)(F)F)cc2-c2ccc3c(ccc4ccccc43)c2)cc1", "note": "+ Oc1cc(-c2nc(-c3ccccc3)[nH]c2-c2ccncc2)ccc1Cl [L779450] (first compound 1 µM, partner dose 0.2 µM)", "cleaved PARP positive nuclei fraction": 62.5},
      {"smiles": "O=S(=O)(c1ccccc1)N(CC(F)(F)F)c1ccc(C(O)(C(F)(F)F)C(F)(F)F)cc1", "note": "+ CC(C)CCN1c2nc(Nc3cc(F)c(O)c(F)c3)ncc2N(C)C(=O)C1C [BID1870] (first compound 1.4 µM, partner dose 0.2 µM)", "cleaved PARP positive nuclei fraction": 146},
      {"smiles": "Cn1cc(/C=C2\\C(=O)Nc3cccnc32)c2ccccc21", "note": "+ CC(C)CCN1c2nc(Nc3cc(F)c(O)c(F)c3)ncc2N(C)C(=O)C1C [BID1870] (first compound 0.4 µM, partner dose 0.2 µM)", "cleaved PARP positive nuclei fraction": 200},
      {"smiles": "O=C1NC(=O)/C(=C/c2ccc(-c3ccc(F)cc3O)o2)S1", "note": "+ COc1cc(N2CCC(N3CCN(C)CC3)CC2)ccc1Nc1ncc(Cl)c(Nc2ccccc2S(=O)(=O)C(C)C)n1 [NVP-TAE684] (first compound 1 µM, partner dose 0.08 µM)", "cleaved PARP positive nuclei fraction": 182},
      {"smiles": "N#Cc1c(O)c2c(-c3ccc(-c4ccccc4O)cc3)csc2[nH]c1=O", "note": "+ CCN(CC)CCCCNc1ncc2cc(-c3cc(OC)cc(OC)c3)c(NC(=O)NC(C)(C)C)nc2n1 [PD173074] (first compound 2 µM, partner dose 0.1 µM)", "cleaved PARP positive nuclei fraction": 140},
      {"smiles": "CN(C)S(=O)(=O)c1ccc2c(c1)/C(=C/c1cc3c([nH]1)CCCC3)C(=O)N2", "note": "+ COc1ccc2c(c1)CCC1C2CCC2(C)C(NCCCCCCN3C(=O)C=CC3=O)CCC12 [U73122] (first compound 0.4 µM, partner dose 0.4 µM)", "cleaved PARP positive nuclei fraction": 49.7},
      {"smiles": "Oc1cc(-c2nc(-c3ccccc3)[nH]c2-c2ccncc2)ccc1Cl", "note": "+ c1cc(-c2cnn3cc(-c4ccc(OCCN5CCCCC5)cc4)cnc23)ccn1 [Dorsomorphin] (first compound 0.2 µM, partner dose 0.4 µM)", "cleaved PARP positive nuclei fraction": 131},
      {"smiles": "Oc1nc(-c2ccc(C(F)(F)F)cc2)nc2c1CSCC2", "note": "+ CCCCCCCCCCCC1=C(O)C(=O)C=C(O)C1=O [Embelin] (first compound 2 µM, partner dose 1.2 µM)", "cleaved PARP positive nuclei fraction": 28.5},
      {"smiles": "CN(C)S(=O)(=O)c1ccc2c(c1)/C(=C/c1cc3c([nH]1)CCCC3)C(=O)N2", "note": "+ CCN(CC)CCCCNc1ncc2cc(-c3cc(OC)cc(OC)c3)c(NC(=O)NC(C)(C)C)nc2n1 [PD173074] (first compound 0.4 µM, partner dose 0.1 µM)", "cleaved PARP positive nuclei fraction": 94.4},
      {"smiles": "COc1ccc(-c2ccc3c(N4CCOCC4)nc(N4C[C@@H](C)O[C@@H](C)C4)nc3n2)cc1CO", "note": "+ O=c1cc(-c2cccc3c2Sc2ccccc2S3)oc(N2CCOCC2)c1 [KU55933] (first compound 0.02 µM, partner dose 1 µM)", "cleaved PARP positive nuclei fraction": 162},
      {"smiles": "NCC(=O)Nc1ccc(-n2nc(C(F)(F)F)cc2-c2ccc3c(ccc4ccccc43)c2)cc1", "note": "+ Cn1cc(/C=C2\\C(=O)Nc3cccnc32)c2ccccc21 [GW441756] (first compound 1 µM, partner dose 0.4 µM)", "cleaved PARP positive nuclei fraction": 301},
      {"smiles": "COc1ccc(-c2ccc3c(N4CCOCC4)nc(N4C[C@@H](C)O[C@@H](C)C4)nc3n2)cc1CO", "note": "+ CC(C)CCN1c2nc(Nc3cc(F)c(O)c(F)c3)ncc2N(C)C(=O)C1C [BID1870] (first compound 0.02 µM, partner dose 0.2 µM)", "cleaved PARP positive nuclei fraction": 169},
      {"smiles": "CCN(CC)CCCCNc1ncc2cc(-c3cc(OC)cc(OC)c3)c(NC(=O)NC(C)(C)C)nc2n1", "note": "+ Cc1cc([N+](=O)[O-])ccc1NS(=O)(=O)c1cc(Cl)ccc1Cl [FH535] (first compound 0.1 µM, partner dose 1 µM)", "cleaved PARP positive nuclei fraction": 158},
      {"smiles": "COc1cc2c(Oc3ccc4[nH]c(C)cc4c3F)ncnc2cc1OCCCN1CCCC1", "note": "[cediranib] + CCN(CC)CCCCNc1ncc2cc(-c3cc(OC)cc(OC)c3)c(NC(=O)NC(C)(C)C)nc2n1 [PD173074] (first compound 0.4 µM, partner dose 0.1 µM)", "cleaved PARP positive nuclei fraction": 145},
      {"smiles": "O=C(O)c1ccc(-c2c[nH]c3ncc(-c4ccccc4)cc23)cc1C1CCCC1", "note": "+ Cn1cc(/C=C2\\C(=O)Nc3cccnc32)c2ccccc21 [GW441756] (first compound 0.16 µM, partner dose 0.4 µM)", "cleaved PARP positive nuclei fraction": 68.9},
      {"smiles": "O=C(O)c1ccc(-c2c[nH]c3ncc(-c4ccccc4)cc23)cc1C1CCCC1", "note": "+ Oc1nc(-c2ccc(C(F)(F)F)cc2)nc2c1CSCC2 [XAV939] (first compound 0.16 µM, partner dose 2 µM)", "cleaved PARP positive nuclei fraction": 169},
      {"smiles": "N#Cc1c(O)c2c(-c3ccc(-c4ccccc4O)cc3)csc2[nH]c1=O", "note": "+ COc1cc(N2CCC(N3CCN(C)CC3)CC2)ccc1Nc1ncc(Cl)c(Nc2ccccc2S(=O)(=O)C(C)C)n1 [NVP-TAE684] (first compound 2 µM, partner dose 0.08 µM)", "cleaved PARP positive nuclei fraction": 203},
      {"smiles": "Oc1cc(-c2nc(-c3ccccc3)[nH]c2-c2ccncc2)ccc1Cl", "note": "+ COc1cc(N2CCC(N3CCN(C)CC3)CC2)ccc1Nc1ncc(Cl)c(Nc2ccccc2S(=O)(=O)C(C)C)n1 [NVP-TAE684] (first compound 0.2 µM, partner dose 0.08 µM)", "cleaved PARP positive nuclei fraction": 195},
      {"smiles": "COc1ccc2c(c1)CCC1C2CCC2(C)C(NCCCCCCN3C(=O)C=CC3=O)CCC12", "note": "(stereo unspecified) + Oc1cc(-c2nc(-c3ccccc3)[nH]c2-c2ccncc2)ccc1Cl [L779450] (first compound 0.4 µM, partner dose 0.2 µM)", "cleaved PARP positive nuclei fraction": 172},
      {"smiles": "COc1cc2c(Oc3ccc4[nH]c(C)cc4c3F)ncnc2cc1OCCCN1CCCC1", "note": "[cediranib] + Oc1cc(-c2nc(-c3ccccc3)[nH]c2-c2ccncc2)ccc1Cl [L779450] (first compound 0.4 µM, partner dose 0.2 µM)", "cleaved PARP positive nuclei fraction": 126},
      {"smiles": "O=S(=O)(c1ccccc1)N(CC(F)(F)F)c1ccc(C(O)(C(F)(F)F)C(F)(F)F)cc1", "note": "+ Cn1cc(/C=C2\\C(=O)Nc3cccnc32)c2ccccc21 [GW441756] (first compound 1.4 µM, partner dose 0.4 µM)", "cleaved PARP positive nuclei fraction": 173},
      {"smiles": "N#Cc1c(O)c2c(-c3ccc(-c4ccccc4O)cc3)csc2[nH]c1=O", "note": "+ CC(C)CCN1c2nc(Nc3cc(F)c(O)c(F)c3)ncc2N(C)C(=O)C1C [BID1870] (first compound 2 µM, partner dose 0.2 µM)", "cleaved PARP positive nuclei fraction": 134},
      {"smiles": "O=S(=O)(c1ccccc1)N(CC(F)(F)F)c1ccc(C(O)(C(F)(F)F)C(F)(F)F)cc1", "note": "+ Oc1cc(-c2nc(-c3ccccc3)[nH]c2-c2ccncc2)ccc1Cl [L779450] (first compound 1.4 µM, partner dose 0.2 µM)", "cleaved PARP positive nuclei fraction": 205},
      {"smiles": "CN(NC(=O)CC(=O)NN(C)C(=S)c1ccccc1)C(=S)c1ccccc1", "note": "+ COC(=O)c1sccc1S(=O)(=O)Nc1ccc(Nc2ccccc2)cc1OC [GSK0660] (first compound 0.006 µM, partner dose 1 µM)", "cleaved PARP positive nuclei fraction": 116},
      {"smiles": "COc1cc2c(Oc3ccc4[nH]c(C)cc4c3F)ncnc2cc1OCCCN1CCCC1", "note": "[cediranib] + O=C(O)C(=O)Nc1sc2c(c1C(=O)O)CCNC2 [TCS401] (first compound 0.4 µM, partner dose 1.66667 µM)", "cleaved PARP positive nuclei fraction": 190},
      {"smiles": "COC(=O)c1sccc1S(=O)(=O)Nc1ccc(Nc2ccccc2)cc1OC", "note": "+ CCCCCCCCCCCC1=C(O)C(=O)C=C(O)C1=O [Embelin] (first compound 1 µM, partner dose 1.2 µM)", "cleaved PARP positive nuclei fraction": 143}
    ]}
  ]
}
